Data taken from paper PMC7819943, “Rice protein-binding microarrays: a tool to detect cis-acting elements near promoter regions in rice”.
Some of the results follow.

Chains of the proteins cited; added tags and fusions are not shown.
UniProt Q0JBA9, entry or part of it: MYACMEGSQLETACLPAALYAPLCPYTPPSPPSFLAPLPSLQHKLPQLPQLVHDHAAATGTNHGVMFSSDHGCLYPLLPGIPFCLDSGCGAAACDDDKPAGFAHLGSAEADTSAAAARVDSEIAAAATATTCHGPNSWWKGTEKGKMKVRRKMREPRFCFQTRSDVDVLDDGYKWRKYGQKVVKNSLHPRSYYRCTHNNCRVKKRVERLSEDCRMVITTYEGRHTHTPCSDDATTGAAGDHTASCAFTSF

target: OsWRKY34 (Oryza sativa, UniProt Q0JBA9 1-250); test: protein-binding microarray (RPBM); PBS, 2% BSA, 51.3 ng/ul salmon testes DNA, 50 uM zinc acetate, 200 nM TF, 25 C, 1 h; high values mean tight binding; settings: protein: recombinant; tags: N-terminal polyhistidine and DsRed monomer fusion (pET32a); label: CyDye5-dUTP incorporated in the synthesized complementary strand; 3' TTTTT single-stranded linker to array surface; dsDNA, one strand shown
In short: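 Transcription factors were made in E. coli BL21-CodonPlus as N-terminal fusions to a polyhistidine tag and DsRed, then purified on Ni–NTA. After primer extension with Cy5-dUTP and blocking with 2% BSA, a custom Agilent array was exposed for 1 h at 25 °C to 200 nM protein in PBS, 2% BSA, salmon testes DNA and 50 µM zinc acetate. Washed arrays were scanned on an Axon 4000B, and the binding signal is per-feature fluorescence intensity in arbitrary units.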

Sequence	binding signal
CCACCCATGCATGCAATGCAGCCTCATCGCTTACGTCACCCGGAGTCACCTAGTGCAG	11700 fluorescence intensity (a.u.)
GCTCCGGCTCTTTCTCTCTTTCTCTCTCTCCACCGCAAGCCGGAGTCACCTAGTGCAG	8260 fluorescence intensity (a.u.)
CACTCGATCCTCGCCATTACCATCAGGCCCACACACATAACGGAGTCACCTAGTGCAG	13600 fluorescence intensity (a.u.)
ACCCTCCACCCGCCACCGCCACCGCCGCCTTCGCCGCCGCCGGAGTCACCTAGTGCAG	9250 fluorescence intensity (a.u.)
CCGCTCTCTGCTAGCTTCCACACACCAAGTTCATCAGCCACGGAGTCACCTAGTGCAG	10200 fluorescence intensity (a.u.)
ATTTCCTTTTCTTTGCGTGAGCTCATTGCTCTTTATTTGGCGGAGTCACCTAGTGCAG	8670 fluorescence intensity (a.u.)
TCGGGTTTTAGGGTTTTCTTCCTCTTCTCTTGCATCCTCCCGGAGTCACCTAGTGCAG	8630 fluorescence intensity (a.u.)
GATAATGAATCATTGTTGTGTCCATGTATATTACATCATGCGGAGTCACCTAGTGCAG	9670 fluorescence intensity (a.u.)
GCTTATACTTATCAGTCAAAATTTAAATTTCCATCCTTAACGGAGTCACCTAGTGCAG	9130 fluorescence intensity (a.u.)
TCCGCCTTCTGAGTCGCCTCAGTACTCCCATCCGATACGACGGAGTCACCTAGTGCAG	8330 fluorescence intensity (a.u.)
ACGCGCACCACTTCGGTCGCCCCGCCCGGCTGCACTGCATCGGAGTCACCTAGTGCAG	10200 fluorescence intensity (a.u.)
TTTTTGTGGCTCTTATATTTCACTTTTTCATTCATAGGATCGGAGTCACCTAGTGCAG	11800 fluorescence intensity (a.u.)
ATCTTCAAAACAACAGTCCCTTTTCTTATATCGTAATTTCCGGAGTCACCTAGTGCAG	8370 fluorescence intensity (a.u.)
CTCAGTCTTCTTTTTTCTTCTTCTTTGTTTGACGGAACAACGGAGTCACCTAGTGCAG	9260 fluorescence intensity (a.u.)
GGAAGTCAACTCTTTGCACCGTGATACGAATTATGCTACCCGGAGTCACCTAGTGCAG	8240 fluorescence intensity (a.u.)
TCCATCACCAAGATGCTAAACTTTTCCCGTCGCCGTTACCCGGAGTCACCTAGTGCAG	8930 fluorescence intensity (a.u.)
GATATGACACTTTAATCCTGTACCTTTTCAGAAATCAGAACGGAGTCACCTAGTGCAG	8030 fluorescence intensity (a.u.)
AAACTTATGGGTATGTGAGGAATTTTCTTGTCCTTGTACTCGGAGTCACCTAGTGCAG	9210 fluorescence intensity (a.u.)
TGTTCTGCCAGCCAATCCAGATCGCCCTCGTATGCACGCTCGGAGTCACCTAGTGCAG	8890 fluorescence intensity (a.u.)
CCTATAGCGTCTCTCCCGAAGGCTCGAGACACCACACCTCCGGAGTCACCTAGTGCAG	8320 fluorescence intensity (a.u.)
TATCCTCCACCGGTCTAGGCACTTTCTGTATCTATATATACGGAGTCACCTAGTGCAG	8840 fluorescence intensity (a.u.)

Sequence	binding signal
TATCCCGTATATAGCGCCCCTACGTCGGCCGGCCCGACGACGGAGTCACCTAGTGCAG	8680 fluorescence intensity (a.u.)
AACCAGGCTCATCTCCATCTCCTTCCCCGCGCGAGAGAGACGGAGTCACCTAGTGCAG	8380 fluorescence intensity (a.u.)
TCTCTGAAGCAACACCATATAAAACCTTGCCACACTTTTACGGAGTCACCTAGTGCAG	9300 fluorescence intensity (a.u.)
AGTTATGTTTTGATCCTGCCACATAGTTTGAGTTTTGTGACGGAGTCACCTAGTGCAG	9470 fluorescence intensity (a.u.)
CCTTGTTTTTTTGTGGATGGCTACTTGCAATGCTATACTTCGGAGTCACCTAGTGCAG	10200 fluorescence intensity (a.u.)
TCATTTCTTATTTTGTAGGTCAAAATGGTTTCCCAAGTTCCGGAGTCACCTAGTGCAG	8440 fluorescence intensity (a.u.)
ACTTTTCTTAGTTTCCACGTCGCAGTTTCTCTTCTCTCCTCGGAGTCACCTAGTGCAG	9870 fluorescence intensity (a.u.)
AGATGGTTTCTCCACCAGTGTGTGCTTTTGACACATGTATCGGAGTCACCTAGTGCAG	8600 fluorescence intensity (a.u.)
GAGAGGAGGTGGTGGGAAGTGGCGGCTAGGGTTTGGGTGGCGGAGTCACCTAGTGCAG	11300 fluorescence intensity (a.u.)
GACTCCTCCGTCGCGATCTCCGCCGCGACCTCGTCCACGGCGGAGTCACCTAGTGCAG	8550 fluorescence intensity (a.u.)
TTCCCACCGCTGCCGCTCGTCCCGTCTCACCGATCCCTCCCGGAGTCACCTAGTGCAG	10300 fluorescence intensity (a.u.)
TCTCTCTTCTTCAACCTCTGTACCTCTCTTCTCTTCTCCACGGAGTCACCTAGTGCAG	8850 fluorescence intensity (a.u.)
CTTATTCTCGTTCTCCTCTTCATCTCGTTTTTCCCTTTCTCGGAGTCACCTAGTGCAG	11200 fluorescence intensity (a.u.)
CAACCACAACACCGTCTTCTTCGACGTCAACATGCGCGCCCGGAGTCACCTAGTGCAG	8540 fluorescence intensity (a.u.)
GCATACATCTCTACTACCTGCATCTCCATCTCAAATCAAACGGAGTCACCTAGTGCAG	10400 fluorescence intensity (a.u.)
TCGGTTTCATACGTGGGGTCTGTTGGTGGAGGTGTTGCCACGGAGTCACCTAGTGCAG	9440 fluorescence intensity (a.u.)
TGTTATATATATATTGATGTTGGGTGAATCGACTTGACTCCGGAGTCACCTAGTGCAG	8090 fluorescence intensity (a.u.)
CCTAAATCGTATCTCGTTATCTAGTGTTAGTTTATAATTTCGGAGTCACCTAGTGCAG	9470 fluorescence intensity (a.u.)
TTGACTTTCGAGTTTCGACCAATATCGGTATATTCCGTTCCGGAGTCACCTAGTGCAG	9300 fluorescence intensity (a.u.)
GATCTTCTCTAGTTTCCCAATCAAATCCTCTGATGTCCAACGGAGTCACCTAGTGCAG	8820 fluorescence intensity (a.u.)
CCCAACATCTCAATGACTTTCTCTCGTCTCATCTTCTTCCCGGAGTCACCTAGTGCAG	8590 fluorescence intensity (a.u.)

Sequence	binding signal
GGGTCCGGGTGTGTGGGGTGGGGAAGCGAGGCGAAACCCGCGGAGTCACCTAGTGCAG	9320 fluorescence intensity (a.u.)
GACCCATGGCTCGCCGCGCACGGTGACCTCTCCCACGTCTCGGAGTCACCTAGTGCAG	8340 fluorescence intensity (a.u.)
ACATCCGATTCCGCACTGCTGTGCTGCCCAATTCCTCCACCGGAGTCACCTAGTGCAG	8100 fluorescence intensity (a.u.)
GATTTTATTTGATCTTTTTCTTTTTTTATCAATTCAAATTCGGAGTCACCTAGTGCAG	10000 fluorescence intensity (a.u.)
GTTTCTGTGCCTTTTTGCTCCATTTCATGGATTATTATGACGGAGTCACCTAGTGCAG	9540 fluorescence intensity (a.u.)
GTCGGTGTTGCGCTTTGCCCTTGTACACGTGCCGTACTAGCGGAGTCACCTAGTGCAG	10400 fluorescence intensity (a.u.)
TGGTGATCCATGTTTTATATTCTGCATTACTCTTAATTTGCGGAGTCACCTAGTGCAG	8730 fluorescence intensity (a.u.)
TCCCCAACCACCTTCCCCGCCGCCCTCGCGCTTCCGGCATCGGAGTCACCTAGTGCAG	8100 fluorescence intensity (a.u.)
TACACATATATACATCTCTTTGCATATTTATATTCTTGTCCGGAGTCACCTAGTGCAG	9210 fluorescence intensity (a.u.)
TTACCTGCTCTCCACCAACCATTCTTTCCATGCATTCGTTCGGAGTCACCTAGTGCAG	11500 fluorescence intensity (a.u.)
TGCGGCCGCGCCCATCCCGCCAGTTCAGTCACCAACCCACCGGAGTCACCTAGTGCAG	8170 fluorescence intensity (a.u.)
TGTGTTCAACGTTTTTGGTGGTATGTCGCTATAGCATTTCCGGAGTCACCTAGTGCAG	8300 fluorescence intensity (a.u.)
CATTTTCTCCAGGCCCATTAAGCCCATAGGTCATCGTATCCGGAGTCACCTAGTGCAG	8680 fluorescence intensity (a.u.)
TCTTAGTATCCTTGGTTGTTGGATTTTTAGTTTGCTTTATCGGAGTCACCTAGTGCAG	9350 fluorescence intensity (a.u.)
TATGTGATTTCTCTTTCATATGCTACACATTTTTTTTCAACGGAGTCACCTAGTGCAG	10300 fluorescence intensity (a.u.)
CCTAGCTGCACAAGCTTAACTTCTAGTTTTTGTTTATGTTCGGAGTCACCTAGTGCAG	9210 fluorescence intensity (a.u.)
TCGCGCTCACCACGATGGACTTTTCCTAGAGAGGGATCTACGGAGTCACCTAGTGCAG	8650 fluorescence intensity (a.u.)
CACTCATTCCATTCCCCAACCCCAACCATTCCTATTTCTACGGAGTCACCTAGTGCAG	8510 fluorescence intensity (a.u.)
AAACATTAGGTGGGGTGGATTTTTTCCATGTGTTATGTTTCGGAGTCACCTAGTGCAG	8620 fluorescence intensity (a.u.)
AACTCTTCACTCTCGTAGGCGATCTCGATCTTAACATGCTCGGAGTCACCTAGTGCAG	9300 fluorescence intensity (a.u.)
ATCATTTGTCTCGCGACGAAAACTTGCGTTGACCACCCACCGGAGTCACCTAGTGCAG	17500 fluorescence intensity (a.u.)

Sequence	binding signal
CTCTCATGTATATACATTAATTATGTTTTTGTCCCCATTTCGGAGTCACCTAGTGCAG	9950 fluorescence intensity (a.u.)
AGGTACCTTTTGGTTGGGAAGATGTTTCATCTCCTGTCATCGGAGTCACCTAGTGCAG	8190 fluorescence intensity (a.u.)
GTGGGTGGAAGGCTAGAAGGCGATGGGCGCGGTGGATTCCCGGAGTCACCTAGTGCAG	11300 fluorescence intensity (a.u.)
GCATTTCATTTGATTTAACACTTTTACCCCTTATCTCCAACGGAGTCACCTAGTGCAG	9130 fluorescence intensity (a.u.)
TATCATTTACTCATTGTAACGCACGTGTATTTTTTCTAGGCGGAGTCACCTAGTGCAG	9880 fluorescence intensity (a.u.)
ACCGATTGTCCGATTCGAGTTTCTTAATTTGTCTTTTTTTCGGAGTCACCTAGTGCAG	12000 fluorescence intensity (a.u.)
AGAGTTTAAATGTGTCTTTTTGGTGGGTAGAAAATTATTTCGGAGTCACCTAGTGCAG	10400 fluorescence intensity (a.u.)
TTTCTTATCTGTAGTCCTATTTTTTCCCGAGAAATTAATCCGGAGTCACCTAGTGCAG	8670 fluorescence intensity (a.u.)
ACCGTGACCGTGCGCTTCTCGCCTTTCGCCTTCGCCTCCACGGAGTCACCTAGTGCAG	9350 fluorescence intensity (a.u.)
GCGTCTGGGGCCTCGGGCGGCGCGCGCGGGGAGGGGCGTGCGGAGTCACCTAGTGCAG	10500 fluorescence intensity (a.u.)
AGATGGCATTCCCAGTTTAGTCATGTACACCGTAGCCGTACGGAGTCACCTAGTGCAG	8360 fluorescence intensity (a.u.)
TCCGTTTCCATTCCCTGGCACACGCCATTCGCCTCGCTTGCGGAGTCACCTAGTGCAG	10800 fluorescence intensity (a.u.)
AGTCAAACACATATTGACCAACCAACCCCTGCATTGACCTCGGAGTCACCTAGTGCAG	8320 fluorescence intensity (a.u.)
CTTTTACATAAATGTGAAGTTCTTTTTTTTTTGCGGGGATCGGAGTCACCTAGTGCAG	8500 fluorescence intensity (a.u.)
GTCCATCGCCGCGACCCACGCCACCACCGTTACGGACATCCGGAGTCACCTAGTGCAG	9510 fluorescence intensity (a.u.)
CACAGATCATTACACACTGTTTGAGCATCTCTCTATTCCTCGGAGTCACCTAGTGCAG	8320 fluorescence intensity (a.u.)
TTCCTACATTTTCACTCCTACTAGCTAGCACGTGAAGAAACGGAGTCACCTAGTGCAG	8750 fluorescence intensity (a.u.)
TACATCCCTTGCCATCTCCATCGCCGGCTTCCTCGCCATTCGGAGTCACCTAGTGCAG	17100 fluorescence intensity (a.u.)
CCGGCGACGTGGTCGCGCATTCCTCTTCTCGCCGGCAGACCGGAGTCACCTAGTGCAG	8080 fluorescence intensity (a.u.)
CCTCATCTTCTCACCGTTGCCGTCTTTGTGGTGAAGCCGGCGGAGTCACCTAGTGCAG	8540 fluorescence intensity (a.u.)
GGTTCCCACTACACTACGCCTTTCTACTGGGCTCTTCATGCGGAGTCACCTAGTGCAG	8960 fluorescence intensity (a.u.)

Single values from the results shown:
Under binding signal, GCGTCTGGGGCCTCGGGCGGCGCGCGCGGGGAGGGGCGTGCGGAGTCACCTAGTGCAG is listed with 10500 fluorescence intensity (a.u.)
Under binding signal, GGTTCCCACTACACTACGCCTTTCTACTGGGCTCTTCATGCGGAGTCACCTAGTGCAG is listed with 8960 fluorescence intensity (a.u.)
Under binding signal, CACAGATCATTACACACTGTTTGAGCATCTCTCTATTCCTCGGAGTCACCTAGTGCAG is listed with 8320 fluorescence intensity (a.u.)
